PubChem BioAssay AID2685 (National Center for Advancing Translational Sciences (NCATS), 2010)
This is one part of the list. Further columns of the screen follow, without active or inactive calls. Compounds called inactive in the main read-out are mostly missing here. Words in brackets tell the shape of the fitted curve; partial curves, single points and poor fits give uncertain potencies.

Experiment: qHTS Assay for Lipid Storage Modulators in Drosophila S3 Cells;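 for cell number change: cells counted by Cell Tracker Red CMTPX staining in the red channel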
Conditions: BODIPY lipid droplet fluorescence, 18-24 h; for cell number change: measured here: cell count max response, cells fed with added oleic acid
In short: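 Laser-scanning cytometry quantifies lipid droplet accumulation (500–530 nm total intensity; droplet/cell object ratio) in oleic acid-fed (400 uM added) Drosophila S3 cells treated with a concentration series. 20 uM Triacsin C defined 100% inhibition.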

[1] = measured here: lipid fluorescence (Fed channel) AC50, cells fed with added oleic acid
[2] = measured here: cell number channel AC50, cells fed with added oleic acid

Compound	cell number change	AC50 [1]	AC50 [2]
OCCCNC(=S)Nc1ccc2nccnc2c1	4.7%	6.51 µM [falling, single point]	–
Cc1cc(C)c2nc(N3CCC(C(=O)NCCN4CCOCC4)CC3)sc2c1	2.69%	6.51 µM [rising, single point]	–
N#CC1=C(N)Oc2c(oc(CO)cc2=O)C1c1cccs1 (stereo unspecified)	-0.068%	0.731 µM [falling, full curve]	–
CCOC(=O)c1cc2c(s1)-c1c(C)cccc1OC2	4.92%	32.6 µM [rising, single point]	–
COc1ccccc1NC(=O)COC(=O)C1CC2C=CC1C2 (stereo unspecified)	–	–	1.03 µM [rising, partial curve]
CC(=O)N1CCN(C(=O)CCc2nc3sc4c(c3c(=O)[nH]2)CCCC4)CC1	-12.8%	–	6.51 µM [falling, single point]
COc1ccc(CCNC(=O)c2ccc3c(c2)NC(=O)CS3)cc1OC	7.25%	20.6 µM [rising, single point]	–
CN(c1ccccc1)S(=O)(=O)c1ccc(NC(=O)c2nc(S(C)(=O)=O)ncc2Cl)cc1	68.1%	–	13 µM [rising, partial curve]
CCN1CCN(CCNC(=O)c2ccc3c(c2)N(Cc2ccc(F)cc2)C(=O)c2ccccc2S3=O)CC1 (stereo unspecified)	-10.8%	29.1 µM [rising, single point]	–
N#Cc1cnn(-c2ncnc3sc4c(c23)CCCC4)c1N	63.5%	–	29.1 µM [rising, single point]
CC(=O)Nc1ccc(N2N=C(C)C(N=Nc3ccccc3)C2=O)cc1 (stereo unspecified)	3.67%	0.731 µM [rising, single point]	–
COc1ccc2[nH]c(=O)c(C(c3nnnn3CC3CCCO3)N3CCc4ccccc4C3)cc2c1 (stereo unspecified)	34.8%	–	4.61 µM [rising, full curve, poor fit]
NC(=O)NOCc1ccc(Cl)cc1Cl	0.583%	0.116 µM [rising, full curve, poor fit]	0.103 µM [rising, full curve, poor fit]
CN1/C(=C\C(=O)COC(=O)CNC(=O)c2ccccc2F)C(C)(C)c2ccccc21	6.4%	2.91 µM [rising, single point]	–
CC1(C)CC(=O)C=C(NC2CC(C)(C)NC(C)(C)C2)C1	-17.6%	0.259 µM [falling, full curve, poor fit]	–
O=C(c1ccco1)c1nnn(Cc2ccccc2)c1-c1ccccc1	-11.5%	14.6 µM [rising, partial curve]	–
CC(=O)Nc1ccc(S(=O)(=O)N2CCN(C(C)CCc3ccccc3)CC2)cc1 (stereo unspecified)	49.5%	–	29.1 µM [rising, single point]
O=S1(=O)[C@H]2C[C@@H]3C=C[C@@]2(CN1Cc1cccc(Cl)c1)O3	-0.299%	29.1 µM [falling, single point]	–
O=[N+]([O-])c1cc(S(=O)(=O)Nc2ccccc2)ccc1N1CCN(c2ccccc2)CC1	-35.8%	18.4 µM [falling, single point]	29.1 µM [falling, single point]

Compound	cell number change	AC50 [1]	AC50 [2]
Cc1ccccc1NC(=S)NC(NC(=O)c1ccccc1C)C(Cl)(Cl)Cl (stereo unspecified)	27.2%	6.51 µM [rising, single point]	0.00517 µM [rising, full curve, poor fit]
CC1CCN(S(=O)(=O)Cc2ccccc2Cl)CC1	-4.39%	–	6.51 µM [falling, single point]
O=C(CSc1nc(C2CCCCC2)nc2ccccc12)NCc1ccco1	-16.8%	20.6 µM [falling, single point]	–
CCOc1ccccc1NC(=O)c1cccc(S(=O)(=O)N(Cc2ccccc2)c2ccccc2OC)c1	0.103%	0.231 µM [rising, full curve, poor fit]	–
Cc1nn(Cc2ccccc2)c(Cl)c1/C=C/C(=O)OCC(=O)NC(C)C(C)C (stereo unspecified)	74.5%	–	29.1 µM [rising, single point]
COc1ccc(-c2noc(CNC(=O)C(C)Oc3ccccc3)n2)cc1 (stereo unspecified)	24.3%	29.1 µM [rising, single point]	–
O=C(CSc1nc2ccccc2c(=O)n1Cc1ccco1)N1CCN(c2ccccc2)CC1	4.25%	0.0164 µM [rising, full curve, poor fit]	–
O=C1Nc2ccccc2Oc2cc(Oc3ccccc3)ccc21	-0.906%	–	0.00517 µM [falling, full curve, poor fit]
CN=c1scc(-c2ccc([N+](=O)[O-])cc2)n1/N=C/c1ccco1	-21.4%	11.6 µM [falling, partial curve]	4.11 µM [falling, single point]
CCOC(=O)CC(=O)NC(C)(C)CCCCC(C)(C)NC(=O)CC(=O)OCC	7.24%	0.116 µM [falling, full curve, poor fit]	–
CCn1cc(C(=O)N[C@H](C(=O)NC(C)(C)CO)C(C)C)c(=O)c2cc3c(cc21)OCO3	24.9%	–	–
O=C(NNC(=O)C12CC3CC(CC(Cl)(C3)C1)C2)c1csc(N2CCOCC2)n1	-8.04%	3.66 µM [rising, single point]	–
Cc1ccc(Nc2nc(NCc3ccco3)c3ccccc3n2)cc1	-82.3%	1.84 µM [falling, partial curve]	1.84 µM [falling, partial curve]
Cc1ccccc1OCC(O)Cn1c2ccccc2c2ccccc21 (stereo unspecified)	-25.5%	–	–
CCOC(=O)C1(c2csc(N)n2)COC(=O)C1 (stereo unspecified)	-38.6%	6.51 µM [falling, single point]	29.1 µM [falling, single point]
CN1CCN(C(=S)c2cn(Cc3ccc(Br)cc3)c3ccccc23)CC1	–	–	0.146 µM [rising, full curve, poor fit]
COc1ccc(S(=O)(=O)NCC(=O)N(CC(=O)NCc2ccccc2)Cc2ccco2)cc1	-14.3%	6.51 µM [rising, partial curve]	–
CSc1ccc(N2C(=O)NC3(CCCCC3)C2=O)cc1	88.4%	–	29.1 µM [rising, single point]

Three compounds from above, arranged by number of heavy atoms, ascending.
Compound	cell number change	AC50 [1]	AC50 [2]
Cc1ccccc1NC(=S)NC(NC(=O)c1ccccc1C)C(Cl)(Cl)Cl (stereo unspecified)	27.2%	6.51 µM [rising, single point]	0.00517 µM [rising, full curve, poor fit]
CCOC(=O)CC(=O)NC(C)(C)CCCCC(C)(C)NC(=O)CC(=O)OCC	7.24%	0.116 µM [falling, full curve, poor fit]	–
CN1/C(=C\C(=O)COC(=O)CNC(=O)c2ccccc2F)C(C)(C)c2ccccc21	6.4%	2.91 µM [rising, single point]	–
